Measured values from the supplement of paper PMC6411743.
± gives the standard deviation of the averaged measurements. This is one part of the list.

Sequences of proteins named here, by UniProt entry; tags and fusion partners are left off. A change or cut given only in a name is not applied to a line headed by its entry.
UniProt P53680: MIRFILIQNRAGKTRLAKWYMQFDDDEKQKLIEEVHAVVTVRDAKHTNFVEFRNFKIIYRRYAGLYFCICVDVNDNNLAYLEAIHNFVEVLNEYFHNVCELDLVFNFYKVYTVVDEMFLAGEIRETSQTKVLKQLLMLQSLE
UniProt Q15642: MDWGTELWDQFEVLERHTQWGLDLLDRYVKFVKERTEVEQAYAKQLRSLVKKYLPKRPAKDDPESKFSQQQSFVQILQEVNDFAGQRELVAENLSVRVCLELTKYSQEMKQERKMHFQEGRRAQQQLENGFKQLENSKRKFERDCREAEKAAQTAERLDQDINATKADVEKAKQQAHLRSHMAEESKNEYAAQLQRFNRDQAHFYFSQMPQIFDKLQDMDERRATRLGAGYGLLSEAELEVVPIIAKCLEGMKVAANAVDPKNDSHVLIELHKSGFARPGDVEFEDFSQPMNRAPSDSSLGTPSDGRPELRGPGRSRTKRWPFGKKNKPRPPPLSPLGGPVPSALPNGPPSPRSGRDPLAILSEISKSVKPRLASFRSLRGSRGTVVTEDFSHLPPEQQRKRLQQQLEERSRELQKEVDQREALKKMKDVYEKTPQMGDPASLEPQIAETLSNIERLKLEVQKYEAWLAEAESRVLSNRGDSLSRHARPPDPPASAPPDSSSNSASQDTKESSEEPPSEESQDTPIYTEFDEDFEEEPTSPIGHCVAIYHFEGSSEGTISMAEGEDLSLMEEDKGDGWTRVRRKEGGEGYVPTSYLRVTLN
UniProt O14980, whole entry: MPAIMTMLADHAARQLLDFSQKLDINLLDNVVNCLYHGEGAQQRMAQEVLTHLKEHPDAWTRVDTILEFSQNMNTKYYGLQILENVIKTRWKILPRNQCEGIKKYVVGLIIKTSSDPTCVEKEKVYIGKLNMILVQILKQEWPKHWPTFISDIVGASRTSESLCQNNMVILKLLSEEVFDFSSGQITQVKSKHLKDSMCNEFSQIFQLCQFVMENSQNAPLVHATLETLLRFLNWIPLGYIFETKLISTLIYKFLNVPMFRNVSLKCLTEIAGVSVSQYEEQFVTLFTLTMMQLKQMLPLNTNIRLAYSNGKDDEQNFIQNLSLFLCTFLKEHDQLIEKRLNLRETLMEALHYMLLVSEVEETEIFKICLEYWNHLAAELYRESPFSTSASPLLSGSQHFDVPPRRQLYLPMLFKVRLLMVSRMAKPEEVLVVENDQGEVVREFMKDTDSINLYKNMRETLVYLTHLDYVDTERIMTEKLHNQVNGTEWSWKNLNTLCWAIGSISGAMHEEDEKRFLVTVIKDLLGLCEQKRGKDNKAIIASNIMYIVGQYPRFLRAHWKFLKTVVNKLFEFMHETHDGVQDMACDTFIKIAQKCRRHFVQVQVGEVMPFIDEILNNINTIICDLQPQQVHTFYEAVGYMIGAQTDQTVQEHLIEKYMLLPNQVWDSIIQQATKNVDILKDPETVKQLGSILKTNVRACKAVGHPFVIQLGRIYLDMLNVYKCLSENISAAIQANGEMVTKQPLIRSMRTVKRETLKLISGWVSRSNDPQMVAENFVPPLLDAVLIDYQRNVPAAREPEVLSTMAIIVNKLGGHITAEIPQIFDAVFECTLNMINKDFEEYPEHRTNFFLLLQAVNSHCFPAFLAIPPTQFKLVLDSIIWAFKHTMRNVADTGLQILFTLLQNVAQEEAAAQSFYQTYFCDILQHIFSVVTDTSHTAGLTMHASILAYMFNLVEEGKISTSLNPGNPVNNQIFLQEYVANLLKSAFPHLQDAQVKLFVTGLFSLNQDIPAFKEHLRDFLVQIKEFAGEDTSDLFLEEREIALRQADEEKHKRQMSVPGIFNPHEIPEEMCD
UniProt O15446, whole entry: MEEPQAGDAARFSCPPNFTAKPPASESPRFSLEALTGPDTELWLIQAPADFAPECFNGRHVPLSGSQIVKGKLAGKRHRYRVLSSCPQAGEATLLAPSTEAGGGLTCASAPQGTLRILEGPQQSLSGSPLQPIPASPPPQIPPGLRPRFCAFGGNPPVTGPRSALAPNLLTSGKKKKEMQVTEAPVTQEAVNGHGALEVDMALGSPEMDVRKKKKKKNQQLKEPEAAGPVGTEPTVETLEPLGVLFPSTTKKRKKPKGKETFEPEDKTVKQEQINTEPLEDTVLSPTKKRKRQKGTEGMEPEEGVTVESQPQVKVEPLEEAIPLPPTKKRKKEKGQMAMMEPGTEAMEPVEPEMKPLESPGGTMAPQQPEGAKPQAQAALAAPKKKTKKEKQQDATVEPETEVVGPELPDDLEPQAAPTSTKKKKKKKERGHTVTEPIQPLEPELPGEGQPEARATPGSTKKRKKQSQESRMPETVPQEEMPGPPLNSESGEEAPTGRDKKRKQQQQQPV
UniProt P22087: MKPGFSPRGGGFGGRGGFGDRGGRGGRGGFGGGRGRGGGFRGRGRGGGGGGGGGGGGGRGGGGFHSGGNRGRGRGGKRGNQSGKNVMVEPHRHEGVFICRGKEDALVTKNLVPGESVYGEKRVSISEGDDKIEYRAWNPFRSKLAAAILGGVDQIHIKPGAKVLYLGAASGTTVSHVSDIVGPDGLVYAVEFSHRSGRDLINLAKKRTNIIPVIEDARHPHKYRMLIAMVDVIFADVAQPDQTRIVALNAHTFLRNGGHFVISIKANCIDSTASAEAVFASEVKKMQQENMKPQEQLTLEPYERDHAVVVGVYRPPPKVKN
UniProt O43303: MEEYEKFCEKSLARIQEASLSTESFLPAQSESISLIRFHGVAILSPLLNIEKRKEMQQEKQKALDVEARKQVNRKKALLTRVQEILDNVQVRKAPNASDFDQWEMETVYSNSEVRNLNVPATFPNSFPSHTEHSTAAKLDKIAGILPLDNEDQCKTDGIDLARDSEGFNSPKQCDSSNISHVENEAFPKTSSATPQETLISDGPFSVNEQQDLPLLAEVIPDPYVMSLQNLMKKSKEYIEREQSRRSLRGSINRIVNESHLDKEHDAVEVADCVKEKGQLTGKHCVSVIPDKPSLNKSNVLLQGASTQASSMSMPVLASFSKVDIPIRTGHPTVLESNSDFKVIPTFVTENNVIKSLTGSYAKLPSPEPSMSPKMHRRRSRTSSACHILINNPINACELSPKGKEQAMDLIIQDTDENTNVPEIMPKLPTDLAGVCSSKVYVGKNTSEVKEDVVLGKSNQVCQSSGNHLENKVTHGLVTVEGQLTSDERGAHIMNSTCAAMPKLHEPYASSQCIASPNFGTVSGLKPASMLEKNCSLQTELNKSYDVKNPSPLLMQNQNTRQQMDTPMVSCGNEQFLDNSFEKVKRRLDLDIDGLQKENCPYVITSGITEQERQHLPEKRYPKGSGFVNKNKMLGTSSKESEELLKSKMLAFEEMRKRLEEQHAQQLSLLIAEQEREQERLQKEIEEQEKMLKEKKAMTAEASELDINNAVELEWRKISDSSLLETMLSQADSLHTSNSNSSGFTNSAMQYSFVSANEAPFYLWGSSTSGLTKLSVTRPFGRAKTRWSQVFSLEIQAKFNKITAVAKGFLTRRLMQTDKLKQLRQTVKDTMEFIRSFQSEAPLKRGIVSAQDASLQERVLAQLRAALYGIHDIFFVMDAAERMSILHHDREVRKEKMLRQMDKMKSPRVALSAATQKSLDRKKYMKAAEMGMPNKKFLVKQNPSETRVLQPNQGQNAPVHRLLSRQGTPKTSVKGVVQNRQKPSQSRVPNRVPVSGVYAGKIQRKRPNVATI
UniProt O00442: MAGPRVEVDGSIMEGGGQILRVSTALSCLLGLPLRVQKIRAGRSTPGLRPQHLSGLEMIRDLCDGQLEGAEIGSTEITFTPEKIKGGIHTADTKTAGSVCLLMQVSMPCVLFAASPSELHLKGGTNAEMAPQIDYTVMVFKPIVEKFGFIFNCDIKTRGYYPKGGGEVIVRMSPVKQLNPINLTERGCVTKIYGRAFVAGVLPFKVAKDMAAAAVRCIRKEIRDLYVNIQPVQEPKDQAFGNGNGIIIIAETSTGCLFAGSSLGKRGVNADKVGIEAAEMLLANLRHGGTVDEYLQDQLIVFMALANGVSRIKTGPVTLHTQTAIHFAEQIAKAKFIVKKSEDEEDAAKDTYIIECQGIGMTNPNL
UniProt O60826, whole entry: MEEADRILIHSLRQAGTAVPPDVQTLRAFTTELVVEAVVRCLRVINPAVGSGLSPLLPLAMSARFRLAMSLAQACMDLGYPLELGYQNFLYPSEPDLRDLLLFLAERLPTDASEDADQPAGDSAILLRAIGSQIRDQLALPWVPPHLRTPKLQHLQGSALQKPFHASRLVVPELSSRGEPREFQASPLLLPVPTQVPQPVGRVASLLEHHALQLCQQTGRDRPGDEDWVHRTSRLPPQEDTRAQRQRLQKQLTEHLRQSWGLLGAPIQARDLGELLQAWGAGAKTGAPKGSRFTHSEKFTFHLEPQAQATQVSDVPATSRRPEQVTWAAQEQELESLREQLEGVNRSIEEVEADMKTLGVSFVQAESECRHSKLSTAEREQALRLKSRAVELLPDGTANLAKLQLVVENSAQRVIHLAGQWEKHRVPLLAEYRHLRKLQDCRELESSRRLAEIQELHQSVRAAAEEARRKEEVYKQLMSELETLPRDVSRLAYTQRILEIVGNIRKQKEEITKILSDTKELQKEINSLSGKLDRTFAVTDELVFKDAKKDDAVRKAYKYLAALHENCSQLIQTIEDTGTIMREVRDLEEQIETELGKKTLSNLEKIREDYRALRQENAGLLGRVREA
UniProt O60271: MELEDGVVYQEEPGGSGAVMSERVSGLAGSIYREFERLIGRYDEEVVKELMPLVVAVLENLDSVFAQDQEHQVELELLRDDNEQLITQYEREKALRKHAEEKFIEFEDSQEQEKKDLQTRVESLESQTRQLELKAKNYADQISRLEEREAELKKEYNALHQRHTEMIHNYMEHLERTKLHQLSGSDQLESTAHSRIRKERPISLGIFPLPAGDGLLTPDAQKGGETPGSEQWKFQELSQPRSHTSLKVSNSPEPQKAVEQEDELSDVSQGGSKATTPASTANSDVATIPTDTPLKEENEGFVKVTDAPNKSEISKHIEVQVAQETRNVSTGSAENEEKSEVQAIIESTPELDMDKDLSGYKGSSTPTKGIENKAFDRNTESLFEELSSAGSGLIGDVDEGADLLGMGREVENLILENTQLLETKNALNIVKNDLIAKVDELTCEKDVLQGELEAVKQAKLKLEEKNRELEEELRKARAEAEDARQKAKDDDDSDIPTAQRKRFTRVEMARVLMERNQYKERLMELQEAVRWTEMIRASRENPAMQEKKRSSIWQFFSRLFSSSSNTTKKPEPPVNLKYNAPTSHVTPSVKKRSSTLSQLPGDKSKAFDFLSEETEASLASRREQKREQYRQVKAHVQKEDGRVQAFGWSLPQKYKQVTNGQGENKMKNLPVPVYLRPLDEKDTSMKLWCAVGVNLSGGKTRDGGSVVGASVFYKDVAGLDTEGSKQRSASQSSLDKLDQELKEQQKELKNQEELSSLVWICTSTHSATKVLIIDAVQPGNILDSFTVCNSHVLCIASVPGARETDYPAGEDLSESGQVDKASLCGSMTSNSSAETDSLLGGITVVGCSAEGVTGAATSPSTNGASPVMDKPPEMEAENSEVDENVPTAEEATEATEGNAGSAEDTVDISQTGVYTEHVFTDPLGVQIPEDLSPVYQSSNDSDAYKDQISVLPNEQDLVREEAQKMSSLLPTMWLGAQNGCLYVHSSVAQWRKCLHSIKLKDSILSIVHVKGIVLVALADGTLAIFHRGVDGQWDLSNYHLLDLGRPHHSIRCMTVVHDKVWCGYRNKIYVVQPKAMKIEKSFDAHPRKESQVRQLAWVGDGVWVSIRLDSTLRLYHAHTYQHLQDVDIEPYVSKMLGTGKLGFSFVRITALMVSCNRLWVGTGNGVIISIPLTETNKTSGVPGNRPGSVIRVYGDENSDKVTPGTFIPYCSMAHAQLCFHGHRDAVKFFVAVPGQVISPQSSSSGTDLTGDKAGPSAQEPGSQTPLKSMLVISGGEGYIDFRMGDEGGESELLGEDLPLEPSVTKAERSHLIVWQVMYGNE
UniProt O60678: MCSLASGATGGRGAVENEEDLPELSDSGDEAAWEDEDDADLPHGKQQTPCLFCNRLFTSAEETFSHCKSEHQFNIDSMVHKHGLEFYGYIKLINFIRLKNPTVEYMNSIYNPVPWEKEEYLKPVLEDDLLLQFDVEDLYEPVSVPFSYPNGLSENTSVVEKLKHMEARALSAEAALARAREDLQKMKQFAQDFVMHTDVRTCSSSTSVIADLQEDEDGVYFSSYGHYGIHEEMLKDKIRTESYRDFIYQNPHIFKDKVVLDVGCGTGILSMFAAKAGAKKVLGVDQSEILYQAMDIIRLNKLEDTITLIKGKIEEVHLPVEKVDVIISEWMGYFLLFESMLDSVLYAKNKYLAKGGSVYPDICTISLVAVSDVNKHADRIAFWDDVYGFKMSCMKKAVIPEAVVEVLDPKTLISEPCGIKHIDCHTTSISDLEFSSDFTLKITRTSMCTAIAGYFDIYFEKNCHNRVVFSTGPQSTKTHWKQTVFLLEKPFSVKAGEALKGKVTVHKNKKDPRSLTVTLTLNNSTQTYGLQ

Compound: Nc1nc2c(ncn2[C@@H]2O[C@H](COP(=O)(O)OP(=O)(O)OP(=O)(O)O)[C@@H](O)[C@H]2O)c(=O)[nH]1 [guanosine triphosphate]
Assay: NP40-soluble protein abundance relative to vehicle (solubility fold change) (ratio); higher = more soluble protein in presence of GTP
Method in brief: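 Jurkat crude lysate (Dounce-homogenised) was treated with eight concentrations from 0.1 to 10 mM for 10 min at room temperature, then 3 min at 37 °C. It was solubilised with 0.8% NP40 and benzonase (60 min, 4 °C) and ultracentrifuged, and the supernatant was TMT-labelled for LC-MS/MS. Intensities were vsn-normalised, and the value is the fold change against the NP40-processed vehicle per replicate, from three independent experiments.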

| Target | NP40-soluble protein abundance (concentration: 0.1mM) | NP40-soluble protein abundance (concentration: 0.5mM) | NP40-soluble protein abundance (concentration: 1mM) | NP40-soluble protein abundance (concentration: 2mM) | NP40-soluble protein abundance (concentration: 4mM) | NP40-soluble protein abundance (concentration: 6mM) | NP40-soluble protein abundance (concentration: 8mM) | NP40-soluble protein abundance (concentration: 10mM) |
| --- | --- | --- | --- | --- | --- | --- | --- | --- |
| M0QYZ2 and related entries (UniProt P53680) | 1.07 ± 0.11 | 1.14 ± 0.13 | 1.06 ± 0.15 | 1.12 ± 0.18 | 1.12 ± 0.13 | 1.08 ± 0.091 | 1.04 ± 0.081 | 1.07 ± 0.12 |
| M0R0F9 and related entries (UniProt Q15642) | 0.909 ± 0.067 | 0.855 ± 0.029 | 0.872 ± 0.08 | 0.859 ± 0.024 | 0.846 ± 0.041 | 0.877 ± 0.04 | 0.87 ± 0.058 | 0.8 ± 0.021 |
| UniProt O00471 and related entries | 1.03 ± 0.033 | 1.01 ± 0.057 | 1.02 ± 0.039 | 1.02 ± 0.059 | 1.05 ± 0.062 | 0.996 ± 0.044 | 1.03 ± 0.062 | 1.01 ± 0.05 |
| M0R2B7 and related entries (UniProt P28340) | 1.08 ± 0.092 | 1.08 ± 0.12 | 0.942 ± 0.077 | 0.973 ± 0.15 | 0.966 ± 0.099 | 0.947 ± 0.1 | 0.903 ± 0.045 | 0.876 ± 0.092 |
| XPO1 (UniProt O14980) | 1.01 ± 0.027 | 1.02 ± 0.033 | 0.936 ± 0.022 | 0.926 ± 0.072 | 0.916 ± 0.054 | 0.918 ± 0.033 | 0.882 ± 0.023 | 0.848 ± 0.044 |
| UniProt O15446 and related entries | 1.05 ± 0.012 | 1.04 ± 0.047 | 1.16 ± 0.046 | 1.17 ± 0.098 | 1.22 ± 0.071 | 1.31 ± 0.071 | 1.43 ± 0.022 | 1.49 ± 0.1 |
| NUDT21 (UniProt O43809) | 1.11 ± 0.12 | 1.39 ± 0.12 | 1.64 ± 0.21 | 1.86 ± 0.31 | 2.02 ± 0.39 | 2.04 ± 0.35 | 1.97 ± 0.25 | 2.07 ± 0.44 |
| KPNA3 (UniProt O00505) | 0.964 ± 0.042 | 0.971 ± 0.06 | 1.01 ± 0.046 | 1.02 ± 0.052 | 1.04 ± 0.052 | 1.01 ± 0.068 | 1.05 ± 0.046 | 1.004 ± 0.0059 |
| M0R2U2 and related entries (UniProt P22087) | 1.02 ± 0.054 | 1.03 ± 0.032 | 1.08 ± 0.068 | 1.21 ± 0.056 | 1.52 ± 0.068 | 1.77 ± 0.082 | 2.13 ± 0.11 | 2.47 ± 0.083 |
| UniProt O43303 and related entries | 1.03 ± 0.11 | 0.98 ± 0.11 | 1.09 ± 0.092 | 1.06 ± 0.19 | 1.1 ± 0.29 | 1.09 ± 0.21 | 1.09 ± 0.22 | 1.06 ± 0.18 |
| SCAMP2 (UniProt O15127) | 1 ± 0.05 | 0.984 ± 0.059 | 1.01 ± 0.092 | 0.935 ± 0.076 | 0.975 ± 0.12 | 0.971 ± 0.11 | 0.958 ± 0.046 | 0.971 ± 0.088 |
| MPHOSPH10 (UniProt O00566) | 0.911 ± 0.042 | 0.908 ± 0.089 | 0.988 ± 0.033 | 0.958 ± 0.054 | 0.983 ± 0.038 | 1 ± 0.055 | 0.987 ± 0.086 | 1.04 ± 0.048 |
| BCAT2 (UniProt O15382) | 1.01 ± 0.052 | 1.06 ± 0.039 | 0.934 ± 0.027 | 0.969 ± 0.047 | 0.908 ± 0.049 | 0.921 ± 0.03 | 0.871 ± 0.018 | 0.857 ± 0.077 |
| UniProt O43159 | 1.22 ± 0.084 | 1.18 ± 0.078 | 1.2 ± 0.13 | 1.2 ± 0.096 | 1.28 ± 0.052 | 1.26 ± 0.03 | 1.33 ± 0.038 | 1.37 ± 0.014 |
| M0QYC5 and related entries (UniProt O75182) | 1.24 ± 0.14 | 1.22 ± 0.16 | 1.17 ± 0.12 | 1.28 ± 0.11 | 1.2 ± 0.059 | 1.21 ± 0.036 | 1.18 ± 0.076 | 1.16 ± 0.12 |
| UniProt O43736 and related entries | 0.915 ± 0.062 | 1.01 ± 0.044 | 0.939 ± 0.05 | 0.892 ± 0.033 | 0.96 ± 0.052 | 0.937 ± 0.079 | 0.971 ± 0.08 | 0.982 ± 0.096 |

| Target | NP40-soluble protein abundance (concentration: 0.1mM) | NP40-soluble protein abundance (concentration: 0.5mM) | NP40-soluble protein abundance (concentration: 1mM) | NP40-soluble protein abundance (concentration: 2mM) | NP40-soluble protein abundance (concentration: 4mM) | NP40-soluble protein abundance (concentration: 6mM) | NP40-soluble protein abundance (concentration: 8mM) | NP40-soluble protein abundance (concentration: 10mM) |
| --- | --- | --- | --- | --- | --- | --- | --- | --- |
| UniProt O00442 and related entries | 1.06 ± 0.046 | 1.01 ± 0.032 | 0.97 ± 0.06 | 0.961 ± 0.049 | 0.971 ± 0.1 | 0.924 ± 0.021 | 0.937 ± 0.1 | 0.924 ± 0.066 |
| SETD1A (UniProt O15047) | 1.03 ± 0.034 | 1.04 ± 0.075 | 1.07 ± 0.033 | 1.07 ± 0.051 | 1.06 ± 0.037 | 1.07 ± 0.052 | 1.09 ± 0.065 | 1.08 ± 0.059 |
| CCDC22 (UniProt O60826) | 0.976 ± 0.018 | 0.972 ± 0.013 | 0.99 ± 0.049 | 1.01 ± 0.063 | 1.02 ± 0.028 | 1.01 ± 0.073 | 1.02 ± 0.052 | 0.99 ± 0.052 |
| M0QYV5 and related entries (UniProt Q16740) | 0.983 ± 0.033 | 0.953 ± 0.064 | 1.06 ± 0.06 | 1.02 ± 0.091 | 1.04 ± 0.075 | 0.992 ± 0.067 | 1.03 ± 0.041 | 1.03 ± 0.031 |
| UniProt O15371 and related entries | 1.05 ± 0.05 | 1.08 ± 0.069 | 1.03 ± 0.095 | 1.13 ± 0.15 | 1.27 ± 0.2 | 1.36 ± 0.27 | 1.46 ± 0.22 | 1.6 ± 0.27 |
| SLC35A4 (UniProt L0R6Q1) | 0.889 ± 0.19 | 0.805 ± 0.12 | 1.03 ± 0.22 | 0.987 ± 0.07 | 0.997 ± 0.2 | 0.989 ± 0.086 | 0.859 ± 0.2 | 1.01 ± 0.15 |
| PDCD5 (UniProt O14737) | 0.97 ± 0.062 | 1.01 ± 0.063 | 1.1 ± 0.11 | 1.05 ± 0.099 | 1.08 ± 0.16 | 1.09 ± 0.098 | 1.23 ± 0.12 | 1.27 ± 0.18 |
| UniProt O60271 and related entries | 0.995 ± 0.052 | 0.971 ± 0.047 | 0.994 ± 0.05 | 0.958 ± 0.051 | 0.969 ± 0.066 | 0.942 ± 0.035 | 1 ± 0.032 | 0.977 ± 0.046 |
| UniProt O00264 and related entries | 0.869 ± 0.17 | 0.823 ± 0.1 | 1.01 ± 0.1 | 0.986 ± 0.072 | 0.949 ± 0.091 | 0.943 ± 0.068 | 0.857 ± 0.19 | 1.02 ± 0.1 |
| AIP (UniProt O00170) | 0.889 ± 0.056 | 0.885 ± 0.068 | 0.929 ± 0.081 | 0.888 ± 0.075 | 0.877 ± 0.068 | 0.878 ± 0.065 | 0.854 ± 0.083 | 0.87 ± 0.073 |
| UniProt O14776 and related entries | 0.97 ± 0.042 | 0.962 ± 0.056 | 0.979 ± 0.047 | 0.953 ± 0.083 | 0.989 ± 0.079 | 1.01 ± 0.084 | 1.05 ± 0.05 | 1.04 ± 0.071 |
| PLRG1 (UniProt O43660) | 1.03 ± 0.047 | 1.07 ± 0.07 | 1.02 ± 0.06 | 1.08 ± 0.074 | 1.13 ± 0.12 | 1.17 ± 0.097 | 1.23 ± 0.12 | 1.23 ± 0.11 |
| UniProt O60502 and related entries | 0.991 ± 0.014 | 1 ± 0.029 | 0.9666 ± 0.0021 | 0.968 ± 0.016 | 0.953 ± 0.013 | 0.9433 ± 0.009 | 0.919 ± 0.023 | 0.919 ± 0.011 |
| PRMT3 (UniProt O60678) | 1.08 ± 0.087 | 1.05 ± 0.098 | 0.989 ± 0.059 | 1.02 ± 0.12 | 1.07 ± 0.097 | 0.986 ± 0.088 | 0.952 ± 0.023 | 0.945 ± 0.057 |
| UniProt O43665 and related entries | 0.802 ± 0.079 | 0.748 ± 0.035 | 0.872 ± 0.14 | 0.865 ± 0.068 | 0.791 ± 0.038 | 0.837 ± 0.034 | 0.79 ± 0.089 | 0.909 ± 0.14 |
| M0R0F0 and related entries (UniProt P46782) | 0.939 ± 0.058 | 0.97 ± 0.06 | 1.05 ± 0.14 | 1.01 ± 0.14 | 0.921 ± 0.2 | 0.895 ± 0.17 | 0.797 ± 0.13 | 0.883 ± 0.21 |

Exported tab-delimited: part of the list above
Target	NP40-soluble protein abundance (concentration: 0.1mM)	NP40-soluble protein abundance (concentration: 0.5mM)	NP40-soluble protein abundance (concentration: 1mM)	NP40-soluble protein abundance (concentration: 2mM)	NP40-soluble protein abundance (concentration: 4mM)	NP40-soluble protein abundance (concentration: 6mM)	NP40-soluble protein abundance (concentration: 8mM)	NP40-soluble protein abundance (concentration: 10mM)
M0QYC5 and related entries (UniProt O75182)	1.24 ± 0.14	1.22 ± 0.16	1.17 ± 0.12	1.28 ± 0.11	1.2 ± 0.059	1.21 ± 0.036	1.18 ± 0.076	1.16 ± 0.12
PLRG1 (UniProt O43660)	1.03 ± 0.047	1.07 ± 0.07	1.02 ± 0.06	1.08 ± 0.074	1.13 ± 0.12	1.17 ± 0.097	1.23 ± 0.12	1.23 ± 0.11
